Test results reported in patent US20190376110A1, “METHOD TO DETECT BACTERIAL ACTIVITY AND PATHOGENICITY WITH BIODYNAMIC SENTINELS” (Purdue Research Foundation, priority 2018, published 2019).

Test system: Listeria pellet
Conditions: compared with E. coli and Salmonella
Method: Various bacterial specimens can be prepared in a pellet form. A pellet is a condensed form of bacteria which allows them to be carried and handled more efficiently. Bacteria are grown in LB medium for 4 to 12 hours. When culturing is done, the bacteria density in medium is approximately 10^8 #/mL. To make the pellet, 25 mL of bacteria medium is stored in a centrifuge tube. The medium is centrifuged by 10,000 rpm for 10 minutes (Avanti J-20 XPI). During centrifugation, a pellet is formed at the bottom of a centrifuge tube.
There are two different sample plate preparations. A monoplex plate is a plate preparation format to test a rapid response of bacteria in single wells. The time resolution of the spectrum measurement is 2 minutes. A multiplex plate is a mode for measuring slow behavior using a measuring period is 30 minutes. For the multiplex, 16 wells are measured in parallel. A plate is firmly fixed on a translational stage controlled at 37 degrees Celsius or other temperature depending on the cell type and the bacterium. The plate is covered with a semi-permeable membrane which prevents the medium from drying out while permitting air molecule exchange.
Backscattered light from a specimen forms a speckle field consisting of many speckles with sizes determined by the point-spread-function of the imaging optics, and the speckle is delivered by a 4-f system (L1 and L2, f=15 cm). […]

Q: Which “strength of spectral response to Cipro relative to other species” value does the source give for `O=C(O)c1cn(C2CC2)c2cc(N3CCNCC3)c(F)cc2c1=O` [Cipro, Ciprofloxacin] here?
A: weakest response
